PubChem BioAssay AID1159578 – Peter MacCallum Cancer Centre, 2015

Assay: 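Genome-wide hunt for genes controlling movement of lymphatic endothelial cells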 (primary screen)
Cells: human lymphatic endothelial cells
Reagent: siRNA pool against human genes, 40 nM
Timing: 48 h after transfection
Read-out: 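High-content imaging of dye-stained cells in a scratch assay measures filled wound area and nuclei per well; duplicate means given as ratio to mock and robust z-score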
Reading the numbers: migration robust z-score: higher = faster migration into the scratch; migration relative to mock: higher = more scratch area covered than mock; nuclei per well: higher = more cells in the well
Hit rule: 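Migration changed when robust z exceeds 2 or falls below -2 and mean nuclei number is at least 3300; otherwise not called changed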
Calls: active = migration changed; inactive = no migration change, or too few cells
In all, the deposit lists about 18,000 reagents; this is a random part of them. In the full data, about 1,030 (5.7%) were called active. 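Inactive calls also include pools with fewer than 3300 nuclei, whose migration was not assessed.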 Raw values vary from plate to plate and are shown uncorrected. A number with no mark means an inactive call. No sequences are given here.

target | migration robust z-score | migration class with cell-count check | migration relative to mock | nuclei per well, duplicate mean
CDR1 | 0.09 | migration z between -2 and 2; enough cells | 0.91 | 5977
TINF2 | -0.12 | migration z between -2 and 2; enough cells | 0.86 | 4874
LIAS | -0.31 | migration z between -2 and 2; enough cells | 0.74 | 5312
CLECL1 | 0.95 | migration z between -2 and 2; enough cells | 1.14 | 5918
ADAM21 | 1.92 | migration z between -2 and 2; enough cells | 1.17 | 5320
SMG8 | 0.29 | migration z between -2 and 2; enough cells | 0.96 | 5380
FYB2 | -0.6 | migration z between -2 and 2; enough cells | 0.73 | 5910
CKS1B | -0.96 | migration z between -2 and 2; enough cells | 0.62 | 5904
EME1 | -1.71 | under 3300 nuclei; migration not judged | 0.48 | 3040
LATS2 | -0.13 | migration z between -2 and 2; enough cells | 0.78 | 6514
LRRC71 | 0.22 | migration z between -2 and 2; enough cells | 0.94 | 5878
PANX1 | 0.12 | migration z between -2 and 2; enough cells | 0.92 | 6162
DTX1 | 1.42 | migration z between -2 and 2; enough cells | 1.08 | 5024
ABCF1 | -0.36 | migration z between -2 and 2; enough cells | 0.74 | 6632
ARHGEF26 | -1.31 | migration z between -2 and 2; enough cells | 0.54 | 4856
CLYBL | 0.26 | migration z between -2 and 2; enough cells | 0.96 | 6766
CDK3 | -0.42 | migration z between -2 and 2; enough cells | 0.72 | 5650
SRC | -0.9 | migration z between -2 and 2; enough cells | 0.63 | 6278
TESMIN | 0.57 | migration z between -2 and 2; enough cells | 1.04 | 6062
RNF111 | 0.77 | migration z between -2 and 2; enough cells | 0.96 | 6526
OSBP2 | -0.64 | migration z between -2 and 2; enough cells | 0.72 | 5562
DUSP22 | -0.96 | migration z between -2 and 2; enough cells | 0.62 | 6386
MUC1 | -0.2 | migration z between -2 and 2; enough cells | 0.83 | 5564
ELP4 | -0.4 | migration z between -2 and 2; enough cells | 0.78 | 6515
INTS12 | -1.01 | migration z between -2 and 2; enough cells | 0.61 | 4374
MREG | -0.16 | migration z between -2 and 2; enough cells | 0.84 | 5536
SPTBN2 | 0.74 | migration z between -2 and 2; enough cells | 1.08 | 5958
SPATA4 | -0.2 | migration z between -2 and 2; enough cells | 0.83 | 5896
NCAM2 | -1 | migration z between -2 and 2; enough cells | 0.62 | 6098
UBASH3B | 0.54 | migration z between -2 and 2; enough cells | 0.91 | 4901
PKM | -2.25 | under 3300 nuclei; migration not judged | 0.37 | 3292
YWHAQ | 1.35 | migration z between -2 and 2; enough cells | 1.07 | 5892
PNKD | -0.94 | migration z between -2 and 2; enough cells | 0.62 | 5050
PARD6A | 1.1 | migration z between -2 and 2; enough cells | 1.18 | 5142
OR6C76 | -2.15 (active) | migration z below -2; enough cells | 0.32 | 4324
BTC | 0.3 | migration z between -2 and 2; enough cells | 0.97 | 5060
C1QL2 | 0.58 | migration z between -2 and 2; enough cells | 1.04 | 5107
OR8U8 | 0.71 | migration z between -2 and 2; enough cells | 1.07 | 6068
C3AR1 | 0.65 | migration z between -2 and 2; enough cells | 0.93 | 5486

Part of the list above, reformatted.
{"target": "SPATA4", "migration robust z-score": -0.2, "migration class with cell-count check": "migration z between -2 and 2; enough cells", "migration relative to mock": 0.83, "nuclei per well, duplicate mean": 5896}
{"target": "NCAM2", "migration robust z-score": -1, "migration class with cell-count check": "migration z between -2 and 2; enough cells", "migration relative to mock": 0.62, "nuclei per well, duplicate mean": 6098}
{"target": "UBASH3B", "migration robust z-score": 0.54, "migration class with cell-count check": "migration z between -2 and 2; enough cells", "migration relative to mock": 0.91, "nuclei per well, duplicate mean": 4901}
{"target": "PKM", "migration robust z-score": -2.25, "migration class with cell-count check": "under 3300 nuclei; migration not judged", "migration relative to mock": 0.37, "nuclei per well, duplicate mean": 3292}
